# Results deposited as PubChem BioAssay AID1053208 (Peter MacCallum Cancer Centre, 2014).
# Assay: 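Genes whose silencing cuts survival of bone tumour cells only with doxorubicin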 (primary screen)
# Cell system: mouse osteosarcoma cells, early-passage culture from an engineered mouse model of fibroblastic bone tumour
# Knock-down reagent: siRNA pool against mouse genes, 40 nM
# Time to read-out: about 120 h (48 h before drug, then 72 h with drug)
# Challenge: doxorubicin 100 nM for 72 h, roughly 30-40% inhibitory dose
# Measured: 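Viability read as ATP luminescence after 72 h of 100 nM doxorubicin or none, duplicate wells averaged, scaled to non-targeting siRNA, then expressed as robust z-scores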
# Reading the numbers: viability z-score with doxorubicin and doxorubicin viability vs non-targeting: higher = more viable cells under doxorubicin; viability z-score without drug: higher = more viable cells with knock-down alone; z-score of drug to no-drug ratio: higher = less drug sensitisation by knock-down
# Active means: 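a pool counts as active when its viability z-score with doxorubicin is -2 or below and its z-score without drug lies between -2 and 2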
# The whole screen tested about 17,000 reagents; shown is an unselected part. 788 of all reagents (4.7%) count as active. 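Calls rest on z-score classes alone; an extra cut-off of viability at most 70% of control was not applied to them.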 Reagent sequences are not shown.
target gene,combined z-score class,viability z-score with doxorubicin,viability z-score without drug,z-score of drug to no-drug ratio,doxorubicin viability vs non-targeting,activity call
Or4p8 (GeneID 258774),no change with or without drug,-1.24,-0.84,-0.67,0.83,inactive
4930522H14Rik (GeneID 67646),high cell count without drug only,0.22,2.36,-1.12,0.96,inactive
Pole (GeneID 18973),low cell count with doxorubicin only,-2.25,-0.84,-1.8,0.74,active
Tmsb4x (GeneID 19241),low cell count with doxorubicin only,-2.02,-0.17,-1.91,0.76,active
Or10a5 (GeneID 259036),no change with or without drug,-0.11,0.17,-0.11,0.93,inactive
Fgf5 (GeneID 14176),no change with or without drug,-0.67,-0.34,-0.34,0.88,inactive
Zfp354c (GeneID 30944),no change with or without drug,1.24,-0.17,1.57,1.05,inactive
Tyw3 (GeneID 209584),high cell count without drug only,1.35,2.02,0.11,1.06,inactive
Aebp1 (GeneID 11568),no change with or without drug,1.35,0.17,1.35,1.06,inactive
Blzf1 (GeneID 66352),no change with or without drug,1.24,-0.67,1.91,1.05,inactive
Smu1 (GeneID 74255),low cell count with and without drug,-4.05,-2.53,-2.92,0.58,inactive
Enpp5 (GeneID 83965),no change with or without drug,0.45,-1.18,1.46,0.98,inactive
Lsm14a (GeneID 67070),no change with or without drug,1.12,0,1.24,1.04,inactive
Sytl1 (GeneID 269589),no change with or without drug,0,0.84,-0.45,0.94,inactive
Cdc26 (GeneID 66440),no change with or without drug,-1.12,-0.17,-1.01,0.84,inactive
Ash2l (GeneID 23808),no change with or without drug,-1.91,-0.84,-1.35,0.77,inactive
Uba3 (GeneID 22200),no change with or without drug,-0.22,0.17,-0.22,0.92,inactive
S100a13 (GeneID 20196),no change with or without drug,-0.22,-1.18,0.79,0.92,inactive
Mcoln3 (GeneID 171166),no change with or without drug,0.79,1.85,-0.34,1.01,inactive
Qki (GeneID 19317),no change with or without drug,0.34,0.67,0,0.97,inactive
Piwil2 (GeneID 57746),no change with or without drug,0.79,1.52,-0.11,1.01,inactive
Col18a1 (GeneID 12822),no change with or without drug,1.12,0.84,0.67,1.04,inactive
Lama1 (GeneID 16772),no change with or without drug,1.69,1.52,0.79,1.09,inactive
Pitpnb (GeneID 56305),no change with or without drug,1.57,0.34,1.46,1.08,inactive
Ugt1a6a (GeneID 94284),no change with or without drug,-1.12,-0.84,-0.56,0.84,inactive
Gm5094 (GeneID 328839),no change with or without drug,-0.34,0.17,-0.34,0.91,inactive
Il16 (GeneID 16170),no change with or without drug,1.8,0.84,1.35,1.1,inactive
Or5ae2 (GeneID 258410),no change with or without drug,1.01,-0.51,1.57,1.03,inactive

Continued, starting with the last 4 of the part before.
target gene,combined z-score class,viability z-score with doxorubicin,viability z-score without drug,z-score of drug to no-drug ratio,doxorubicin viability vs non-targeting,activity call
Ugt1a6a (GeneID 94284),no change with or without drug,-1.12,-0.84,-0.56,0.84,inactive
Gm5094 (GeneID 328839),no change with or without drug,-0.34,0.17,-0.34,0.91,inactive
Il16 (GeneID 16170),no change with or without drug,1.8,0.84,1.35,1.1,inactive
Or5ae2 (GeneID 258410),no change with or without drug,1.01,-0.51,1.57,1.03,inactive
Tcf4 (GeneID 21413),no change with or without drug,0,0.84,-0.45,0.94,inactive
Megf6 (GeneID 230971),no change with or without drug,0.67,0.51,0.45,1,inactive
Ntpcr (GeneID 66566),no change with or without drug,-0.34,0.34,-0.45,0.91,inactive
Or8h8 (GeneID 258842),no change with or without drug,-0.45,0,-0.34,0.9,inactive
Gp6 (GeneID 243816),no change with or without drug,0.45,1.18,-0.22,0.98,inactive
Ccdc60 (GeneID 269693),no change with or without drug,-0.22,1.18,-0.9,0.92,inactive
Pglyrp1 (GeneID 21946),no change with or without drug,0,-0.51,0.45,0.94,inactive
Cand2 (GeneID 67088),high cell count without drug only,-1.46,2.36,-2.7,0.81,inactive
Prpf18 (GeneID 67229),no change with or without drug,0.9,0.67,0.56,1.02,inactive
6030445D17Rik (GeneID 320133),no change with or without drug,-0.56,-0.51,-0.11,0.89,inactive
Bbs2 (GeneID 67378),no change with or without drug,-0.34,-0.17,-0.11,0.91,inactive
Rangrf (GeneID 57785),high cell count without drug only,1.69,2.19,0.34,1.09,inactive
Zc3h12a (GeneID 230738),no change with or without drug,0.11,0.34,0,0.95,inactive
Or10g9b (GeneID 259110),low cell count with doxorubicin only,-2.36,-1.52,-1.46,0.73,active
Cds2 (GeneID 110911),low cell count with doxorubicin only,-2.25,-0.34,-2.02,0.74,active
Fermt2 (GeneID 218952),low cell count with and without drug,-2.92,-4.55,0.22,0.68,inactive
Agbl5 (GeneID 231093),no change with or without drug,-0.45,0.17,-0.45,0.9,inactive
Kctd19 (GeneID 279499),no change with or without drug,-0.56,0.17,-0.56,0.89,inactive
Pcdha3 (GeneID 192163),low cell count with and without drug,-2.92,-2.02,-1.8,0.68,inactive
Phxr2 (GeneID 18687),no change with or without drug,0.56,0.34,0.45,0.99,inactive
Mob2 (GeneID 101513),no change with or without drug,0.22,1.52,-0.67,0.96,inactive
Pacrgl (GeneID 66768),low cell count with doxorubicin only,-2.02,0.51,-2.25,0.76,active
